Data on 37 targets can be found in the supplement of paper PMC10849652.

Amino acid sequences for entries named in this document (tags omitted). A change or cut given only in a name is not applied to a line headed by its entry.
UniProt Q9NZ32, whole entry, looked up: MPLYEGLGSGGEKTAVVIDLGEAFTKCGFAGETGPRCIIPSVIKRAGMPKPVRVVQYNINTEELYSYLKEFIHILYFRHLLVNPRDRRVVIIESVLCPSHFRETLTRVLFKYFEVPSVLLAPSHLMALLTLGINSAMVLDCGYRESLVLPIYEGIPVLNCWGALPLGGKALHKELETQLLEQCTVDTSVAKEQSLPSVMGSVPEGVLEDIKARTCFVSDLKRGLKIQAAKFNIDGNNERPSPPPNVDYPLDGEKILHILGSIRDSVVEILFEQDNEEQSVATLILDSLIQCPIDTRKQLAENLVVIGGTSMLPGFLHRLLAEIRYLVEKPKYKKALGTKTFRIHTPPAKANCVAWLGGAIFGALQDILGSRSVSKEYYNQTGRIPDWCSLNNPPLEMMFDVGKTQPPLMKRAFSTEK
UniProt Q9NUB1: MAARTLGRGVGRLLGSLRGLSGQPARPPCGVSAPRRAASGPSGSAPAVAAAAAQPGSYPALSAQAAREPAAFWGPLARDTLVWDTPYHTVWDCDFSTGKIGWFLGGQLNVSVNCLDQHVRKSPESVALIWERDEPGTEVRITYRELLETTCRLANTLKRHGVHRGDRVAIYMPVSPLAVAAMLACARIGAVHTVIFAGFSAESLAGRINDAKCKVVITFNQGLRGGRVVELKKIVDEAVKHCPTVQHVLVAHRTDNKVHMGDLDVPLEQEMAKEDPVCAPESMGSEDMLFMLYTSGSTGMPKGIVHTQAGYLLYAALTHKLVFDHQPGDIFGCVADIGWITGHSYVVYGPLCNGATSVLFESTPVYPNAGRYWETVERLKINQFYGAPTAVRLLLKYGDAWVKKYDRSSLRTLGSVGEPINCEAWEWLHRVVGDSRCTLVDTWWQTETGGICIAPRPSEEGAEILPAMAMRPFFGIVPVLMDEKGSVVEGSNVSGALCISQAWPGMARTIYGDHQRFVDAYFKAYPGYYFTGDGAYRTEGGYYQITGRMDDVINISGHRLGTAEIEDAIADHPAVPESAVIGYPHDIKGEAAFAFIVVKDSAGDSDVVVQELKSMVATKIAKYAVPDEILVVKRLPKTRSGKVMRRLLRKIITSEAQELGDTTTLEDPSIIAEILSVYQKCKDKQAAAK
UniProt P11117: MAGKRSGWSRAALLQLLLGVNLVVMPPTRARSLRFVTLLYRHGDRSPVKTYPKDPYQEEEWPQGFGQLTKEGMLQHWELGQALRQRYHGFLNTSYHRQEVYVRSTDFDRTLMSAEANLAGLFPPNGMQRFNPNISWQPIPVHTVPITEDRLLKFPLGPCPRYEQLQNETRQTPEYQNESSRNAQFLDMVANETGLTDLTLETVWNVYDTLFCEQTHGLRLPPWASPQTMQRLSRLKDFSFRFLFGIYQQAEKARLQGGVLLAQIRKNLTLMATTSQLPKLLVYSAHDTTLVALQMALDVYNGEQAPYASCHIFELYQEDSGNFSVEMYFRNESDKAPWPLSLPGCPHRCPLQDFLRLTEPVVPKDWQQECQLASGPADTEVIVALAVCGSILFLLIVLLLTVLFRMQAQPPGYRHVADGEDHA
UniProt O14672: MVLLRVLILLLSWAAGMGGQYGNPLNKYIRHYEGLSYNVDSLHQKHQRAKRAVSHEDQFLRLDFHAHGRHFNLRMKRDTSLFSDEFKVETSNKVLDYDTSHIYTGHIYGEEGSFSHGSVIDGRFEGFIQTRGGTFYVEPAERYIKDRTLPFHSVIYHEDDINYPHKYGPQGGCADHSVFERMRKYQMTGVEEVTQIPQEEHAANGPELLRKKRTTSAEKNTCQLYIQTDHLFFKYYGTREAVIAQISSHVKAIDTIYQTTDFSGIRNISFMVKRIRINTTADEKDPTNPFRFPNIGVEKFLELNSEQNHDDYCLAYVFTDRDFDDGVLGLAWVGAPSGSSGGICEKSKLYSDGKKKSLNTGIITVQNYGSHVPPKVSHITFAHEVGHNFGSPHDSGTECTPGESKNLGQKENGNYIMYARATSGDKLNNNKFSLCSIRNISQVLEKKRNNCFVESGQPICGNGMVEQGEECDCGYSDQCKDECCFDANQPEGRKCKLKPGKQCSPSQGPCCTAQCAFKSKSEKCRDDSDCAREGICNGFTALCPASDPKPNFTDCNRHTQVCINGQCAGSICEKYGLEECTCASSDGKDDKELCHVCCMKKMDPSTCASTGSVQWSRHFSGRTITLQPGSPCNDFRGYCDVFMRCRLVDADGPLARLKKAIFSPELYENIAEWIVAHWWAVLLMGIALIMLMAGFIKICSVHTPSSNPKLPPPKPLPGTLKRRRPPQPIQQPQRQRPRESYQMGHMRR
UniProt Q7Z6V5: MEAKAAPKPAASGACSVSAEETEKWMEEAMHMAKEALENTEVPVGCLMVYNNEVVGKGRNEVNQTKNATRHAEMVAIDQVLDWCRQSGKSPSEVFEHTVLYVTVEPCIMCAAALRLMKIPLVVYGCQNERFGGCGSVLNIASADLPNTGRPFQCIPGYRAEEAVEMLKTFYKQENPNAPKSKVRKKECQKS
UniProt Q13443: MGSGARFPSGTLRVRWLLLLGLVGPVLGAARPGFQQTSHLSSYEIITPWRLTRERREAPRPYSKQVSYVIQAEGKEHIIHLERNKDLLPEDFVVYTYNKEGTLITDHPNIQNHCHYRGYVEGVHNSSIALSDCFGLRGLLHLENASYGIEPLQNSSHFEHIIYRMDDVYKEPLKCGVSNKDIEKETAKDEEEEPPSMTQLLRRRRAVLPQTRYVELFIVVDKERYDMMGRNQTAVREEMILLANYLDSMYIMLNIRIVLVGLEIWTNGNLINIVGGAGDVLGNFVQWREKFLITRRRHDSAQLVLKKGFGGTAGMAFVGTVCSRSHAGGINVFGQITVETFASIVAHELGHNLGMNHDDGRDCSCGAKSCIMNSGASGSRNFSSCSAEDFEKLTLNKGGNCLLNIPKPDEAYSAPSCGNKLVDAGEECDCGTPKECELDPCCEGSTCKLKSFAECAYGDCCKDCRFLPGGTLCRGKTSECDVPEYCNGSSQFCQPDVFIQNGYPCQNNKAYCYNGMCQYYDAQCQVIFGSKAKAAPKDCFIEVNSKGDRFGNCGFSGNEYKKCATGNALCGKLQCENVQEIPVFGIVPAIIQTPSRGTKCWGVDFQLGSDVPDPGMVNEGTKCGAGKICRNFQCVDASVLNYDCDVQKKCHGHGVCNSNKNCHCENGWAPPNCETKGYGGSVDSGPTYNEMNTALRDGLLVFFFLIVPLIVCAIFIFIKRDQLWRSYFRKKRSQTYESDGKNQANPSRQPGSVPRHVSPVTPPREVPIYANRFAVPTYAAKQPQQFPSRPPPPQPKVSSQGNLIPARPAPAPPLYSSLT
UniProt Q9UKV3: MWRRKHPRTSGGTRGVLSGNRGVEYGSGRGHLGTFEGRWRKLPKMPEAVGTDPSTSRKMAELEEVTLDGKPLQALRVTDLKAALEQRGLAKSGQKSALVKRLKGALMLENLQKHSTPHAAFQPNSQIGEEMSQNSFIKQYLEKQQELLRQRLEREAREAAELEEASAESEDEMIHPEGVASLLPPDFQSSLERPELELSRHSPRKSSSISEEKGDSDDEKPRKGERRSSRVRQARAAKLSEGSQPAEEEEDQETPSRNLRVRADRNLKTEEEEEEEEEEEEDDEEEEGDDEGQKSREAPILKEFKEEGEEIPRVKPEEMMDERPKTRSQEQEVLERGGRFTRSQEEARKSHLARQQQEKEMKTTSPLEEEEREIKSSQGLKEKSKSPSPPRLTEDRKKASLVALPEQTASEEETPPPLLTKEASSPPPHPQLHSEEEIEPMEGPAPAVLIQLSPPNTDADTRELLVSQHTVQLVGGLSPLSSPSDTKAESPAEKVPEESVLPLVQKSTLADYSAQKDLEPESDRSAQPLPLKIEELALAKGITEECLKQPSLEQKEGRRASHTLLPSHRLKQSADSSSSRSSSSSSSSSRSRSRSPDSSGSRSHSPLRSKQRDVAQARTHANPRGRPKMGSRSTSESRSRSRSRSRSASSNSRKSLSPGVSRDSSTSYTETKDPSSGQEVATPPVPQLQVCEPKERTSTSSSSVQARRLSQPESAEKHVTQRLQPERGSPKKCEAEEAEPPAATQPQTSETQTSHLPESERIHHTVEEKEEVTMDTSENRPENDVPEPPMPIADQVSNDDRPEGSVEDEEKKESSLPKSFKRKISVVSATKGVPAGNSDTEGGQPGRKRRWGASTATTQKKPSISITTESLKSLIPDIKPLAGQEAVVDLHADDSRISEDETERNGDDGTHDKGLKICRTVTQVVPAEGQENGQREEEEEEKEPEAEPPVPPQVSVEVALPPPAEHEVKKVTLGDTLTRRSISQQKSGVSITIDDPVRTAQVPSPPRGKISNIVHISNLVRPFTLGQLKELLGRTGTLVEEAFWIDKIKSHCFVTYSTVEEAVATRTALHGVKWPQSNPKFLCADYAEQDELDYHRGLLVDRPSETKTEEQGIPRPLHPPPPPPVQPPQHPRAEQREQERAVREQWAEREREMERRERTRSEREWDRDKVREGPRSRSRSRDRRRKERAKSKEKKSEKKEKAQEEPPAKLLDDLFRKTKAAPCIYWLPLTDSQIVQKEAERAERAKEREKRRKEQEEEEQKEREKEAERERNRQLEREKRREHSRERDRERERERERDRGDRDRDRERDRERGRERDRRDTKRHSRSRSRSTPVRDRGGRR
UniProt P33527: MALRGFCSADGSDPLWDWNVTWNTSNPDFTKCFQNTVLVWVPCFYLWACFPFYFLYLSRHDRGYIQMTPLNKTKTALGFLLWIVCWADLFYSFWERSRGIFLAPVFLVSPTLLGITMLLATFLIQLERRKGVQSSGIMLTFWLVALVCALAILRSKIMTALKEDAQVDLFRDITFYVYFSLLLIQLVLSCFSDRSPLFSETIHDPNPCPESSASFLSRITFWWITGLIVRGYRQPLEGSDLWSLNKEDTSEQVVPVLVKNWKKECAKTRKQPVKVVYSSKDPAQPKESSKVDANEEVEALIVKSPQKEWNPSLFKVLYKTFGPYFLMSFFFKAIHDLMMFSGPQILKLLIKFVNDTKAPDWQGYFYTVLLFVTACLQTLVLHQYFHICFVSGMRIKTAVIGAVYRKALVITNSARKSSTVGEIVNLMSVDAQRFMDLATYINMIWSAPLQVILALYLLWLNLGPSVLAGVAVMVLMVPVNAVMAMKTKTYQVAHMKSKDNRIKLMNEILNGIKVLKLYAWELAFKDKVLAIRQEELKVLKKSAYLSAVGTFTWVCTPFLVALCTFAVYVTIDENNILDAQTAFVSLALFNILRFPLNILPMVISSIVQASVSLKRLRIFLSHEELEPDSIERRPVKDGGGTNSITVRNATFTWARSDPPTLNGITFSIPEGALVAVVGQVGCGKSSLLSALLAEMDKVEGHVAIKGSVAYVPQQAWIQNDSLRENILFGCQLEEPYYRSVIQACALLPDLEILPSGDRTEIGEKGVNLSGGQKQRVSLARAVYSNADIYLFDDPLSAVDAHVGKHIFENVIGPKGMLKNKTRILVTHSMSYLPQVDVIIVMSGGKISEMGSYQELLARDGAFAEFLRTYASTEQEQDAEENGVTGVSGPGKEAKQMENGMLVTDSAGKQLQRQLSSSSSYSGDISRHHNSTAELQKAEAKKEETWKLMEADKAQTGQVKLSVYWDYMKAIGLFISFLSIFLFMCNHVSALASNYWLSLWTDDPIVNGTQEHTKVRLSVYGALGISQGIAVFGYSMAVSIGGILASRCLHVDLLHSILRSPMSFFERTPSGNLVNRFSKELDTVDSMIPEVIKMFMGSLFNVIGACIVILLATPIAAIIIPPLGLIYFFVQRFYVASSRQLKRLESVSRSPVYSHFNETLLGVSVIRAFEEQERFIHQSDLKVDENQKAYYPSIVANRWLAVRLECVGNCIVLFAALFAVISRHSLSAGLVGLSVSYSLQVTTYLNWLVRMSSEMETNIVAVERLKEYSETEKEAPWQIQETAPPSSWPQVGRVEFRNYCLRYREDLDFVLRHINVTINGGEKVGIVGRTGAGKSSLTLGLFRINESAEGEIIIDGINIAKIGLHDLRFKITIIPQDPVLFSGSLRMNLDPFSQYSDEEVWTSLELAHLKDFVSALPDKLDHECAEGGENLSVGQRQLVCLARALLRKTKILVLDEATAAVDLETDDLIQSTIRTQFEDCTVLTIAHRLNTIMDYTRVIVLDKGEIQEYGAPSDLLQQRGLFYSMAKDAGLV
UniProt P11310: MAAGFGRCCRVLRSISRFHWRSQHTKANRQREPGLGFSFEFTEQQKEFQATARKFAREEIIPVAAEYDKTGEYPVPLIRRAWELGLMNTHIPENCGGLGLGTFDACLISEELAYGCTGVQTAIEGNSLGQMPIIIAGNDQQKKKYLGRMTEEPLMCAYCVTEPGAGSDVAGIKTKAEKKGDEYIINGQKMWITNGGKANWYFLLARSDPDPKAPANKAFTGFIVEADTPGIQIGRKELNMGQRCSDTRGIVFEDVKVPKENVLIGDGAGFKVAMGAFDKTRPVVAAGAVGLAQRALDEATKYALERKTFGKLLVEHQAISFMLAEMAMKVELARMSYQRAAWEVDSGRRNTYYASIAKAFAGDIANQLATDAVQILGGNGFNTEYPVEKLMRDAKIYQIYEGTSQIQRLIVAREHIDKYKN

Some of the results follow.

Compound in the assay: FC(F)(F)c1ccc(/C=C/c2nc(COc3ccc(CCCCn4ccnn4)cc3)co2)cc1 [mubritinib]
Briefly: log2 fold change, soluble protein after heating vs DMSO (PISA); higher = thermal stabilisation; K562 cells, 10 uM, 30 min; active = over 0.2 and 3.5 SD of the protein, either way, in both replicates (recomputed). An outline of the steps:
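Soluble protein was defined as the supernatant after 21,000xg for 90 min. It came from K562 cells at 2×10^6 cells/mL given 10 μM compound for 30 min, heated in aliquots for 3 min across 48°C-58°C, pooled, and extracted in PBS with 0.5% NP-40 at 4°C, and was quantified by TMTpro 16plex LC-MS/MS with equalised channel sums. Thermal stability against control samples, from duplicates, is reported as log2 fold change.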
Regarding ACTR2 (UniProt P61160), the log2 fold change was inactive: -0.002.

ACBD6 (UniProt Q9BR61): the log2 fold change is inactive: -0.085.

Take ACTR10 (UniProt Q9NZ32): the log2 fold change was inactive: 0.066.

Turning to ACSS1 (UniProt Q9NUB1), the log2 fold change is inactive: -0.078.

A2M (UniProt P01023): the log2 fold change is inactive: -0.429.

In the case of ACAD8 (UniProt Q9UKU7), the log2 fold change is inactive: -0.017.

Turning to ACTR6 (UniProt Q9GZN1), the log2 fold change was inactive: 0.086.

On to ABLIM1 (UniProt O14639), for which the log2 fold change was inactive: -0.198.

Regarding ACP2 (UniProt P11117), the log2 fold change was inactive: -0.008.

For the target ABCB10 (UniProt Q9NRK6), the log2 fold change is inactive: 0.025.

For ABCB8 (UniProt Q9NUT2), the log2 fold change was inactive: 0.035.

On to ADAM10 (UniProt O14672), for which the log2 fold change is inactive: 0.01.

With ADAT2 (UniProt Q7Z6V5), the log2 fold change is inactive: 0.

As to ACOT7 isoform 7 (UniProt O00154), the log2 fold change was inactive: 0.029.

In the case of ACADSB (UniProt P45954), the log2 fold change is inactive: -0.127.

As to ADAM9 (UniProt Q13443), the log2 fold change was inactive: 0.004.

With ABCE1 (UniProt P61221), the log2 fold change was inactive: 0.023.

ACAT2 (UniProt Q9BWD1): the log2 fold change was inactive: 0.03.

Consider ACOT8 (UniProt O14734), for which the log2 fold change is inactive: 0.067.

For the target ACIN1 (UniProt Q9UKV3), the log2 fold change is inactive: 0.049.

Take ADAR isoform 4 (UniProt P55265): the log2 fold change is inactive: -0.053.

Turning to AARS (UniProt P49588), the log2 fold change was inactive: 0.011.

In the case of ACTN4 (UniProt O43707), the log2 fold change was inactive: 0.008.

On to ACBD3 (UniProt Q9H3P7), for which the log2 fold change is inactive: 0.06.

For the target ACTR3 (UniProt P61158), the log2 fold change was inactive: 0.005.

On to ACSL1 (UniProt P33121), for which the log2 fold change is inactive: -0.009.

Take ABHD17A isoform 2 (UniProt Q96GS6): the log2 fold change was inactive: 0.061.

Turning to AAMP (UniProt Q13685), the log2 fold change is inactive: 0.02.

Turning to ACLY (UniProt P53396), the log2 fold change is inactive: -0.177.

Take AAMDC (UniProt Q9H7C9): the log2 fold change is inactive: 0.073.

As for ACTR1A (UniProt P61163), the log2 fold change is inactive: 0.013.

With ACAD9 (UniProt Q9H845), the log2 fold change was inactive: 0.067.

As for ABHD14B (UniProt Q96IU4), the log2 fold change was inactive: 0.042.

For ACAA2 (UniProt P42765), the log2 fold change was inactive: 0.048.

Take ABCC1 (UniProt P33527): the log2 fold change was inactive: 0.012.

With ACSL5 isoform 3 (UniProt Q9ULC5), the log2 fold change is inactive: -0.018.

With ACADM isoform 2 (UniProt P11310), the log2 fold change was inactive: 0.016.
